# Laboratory results reported in the supplement of paper PMC11732987, “Enantioselective OTUD7B fragment discovery through chemoproteomics screening and high-throughput optimisation” (Communications Chemistry, 2025).
# By UniProt entry, the sequences of proteins in these tests, tags left out. Where a name states a change or a piece, a line headed by the entry shows the natural chain unless it says otherwise. Residues count along the entry.
# UniProt Q9UQ35: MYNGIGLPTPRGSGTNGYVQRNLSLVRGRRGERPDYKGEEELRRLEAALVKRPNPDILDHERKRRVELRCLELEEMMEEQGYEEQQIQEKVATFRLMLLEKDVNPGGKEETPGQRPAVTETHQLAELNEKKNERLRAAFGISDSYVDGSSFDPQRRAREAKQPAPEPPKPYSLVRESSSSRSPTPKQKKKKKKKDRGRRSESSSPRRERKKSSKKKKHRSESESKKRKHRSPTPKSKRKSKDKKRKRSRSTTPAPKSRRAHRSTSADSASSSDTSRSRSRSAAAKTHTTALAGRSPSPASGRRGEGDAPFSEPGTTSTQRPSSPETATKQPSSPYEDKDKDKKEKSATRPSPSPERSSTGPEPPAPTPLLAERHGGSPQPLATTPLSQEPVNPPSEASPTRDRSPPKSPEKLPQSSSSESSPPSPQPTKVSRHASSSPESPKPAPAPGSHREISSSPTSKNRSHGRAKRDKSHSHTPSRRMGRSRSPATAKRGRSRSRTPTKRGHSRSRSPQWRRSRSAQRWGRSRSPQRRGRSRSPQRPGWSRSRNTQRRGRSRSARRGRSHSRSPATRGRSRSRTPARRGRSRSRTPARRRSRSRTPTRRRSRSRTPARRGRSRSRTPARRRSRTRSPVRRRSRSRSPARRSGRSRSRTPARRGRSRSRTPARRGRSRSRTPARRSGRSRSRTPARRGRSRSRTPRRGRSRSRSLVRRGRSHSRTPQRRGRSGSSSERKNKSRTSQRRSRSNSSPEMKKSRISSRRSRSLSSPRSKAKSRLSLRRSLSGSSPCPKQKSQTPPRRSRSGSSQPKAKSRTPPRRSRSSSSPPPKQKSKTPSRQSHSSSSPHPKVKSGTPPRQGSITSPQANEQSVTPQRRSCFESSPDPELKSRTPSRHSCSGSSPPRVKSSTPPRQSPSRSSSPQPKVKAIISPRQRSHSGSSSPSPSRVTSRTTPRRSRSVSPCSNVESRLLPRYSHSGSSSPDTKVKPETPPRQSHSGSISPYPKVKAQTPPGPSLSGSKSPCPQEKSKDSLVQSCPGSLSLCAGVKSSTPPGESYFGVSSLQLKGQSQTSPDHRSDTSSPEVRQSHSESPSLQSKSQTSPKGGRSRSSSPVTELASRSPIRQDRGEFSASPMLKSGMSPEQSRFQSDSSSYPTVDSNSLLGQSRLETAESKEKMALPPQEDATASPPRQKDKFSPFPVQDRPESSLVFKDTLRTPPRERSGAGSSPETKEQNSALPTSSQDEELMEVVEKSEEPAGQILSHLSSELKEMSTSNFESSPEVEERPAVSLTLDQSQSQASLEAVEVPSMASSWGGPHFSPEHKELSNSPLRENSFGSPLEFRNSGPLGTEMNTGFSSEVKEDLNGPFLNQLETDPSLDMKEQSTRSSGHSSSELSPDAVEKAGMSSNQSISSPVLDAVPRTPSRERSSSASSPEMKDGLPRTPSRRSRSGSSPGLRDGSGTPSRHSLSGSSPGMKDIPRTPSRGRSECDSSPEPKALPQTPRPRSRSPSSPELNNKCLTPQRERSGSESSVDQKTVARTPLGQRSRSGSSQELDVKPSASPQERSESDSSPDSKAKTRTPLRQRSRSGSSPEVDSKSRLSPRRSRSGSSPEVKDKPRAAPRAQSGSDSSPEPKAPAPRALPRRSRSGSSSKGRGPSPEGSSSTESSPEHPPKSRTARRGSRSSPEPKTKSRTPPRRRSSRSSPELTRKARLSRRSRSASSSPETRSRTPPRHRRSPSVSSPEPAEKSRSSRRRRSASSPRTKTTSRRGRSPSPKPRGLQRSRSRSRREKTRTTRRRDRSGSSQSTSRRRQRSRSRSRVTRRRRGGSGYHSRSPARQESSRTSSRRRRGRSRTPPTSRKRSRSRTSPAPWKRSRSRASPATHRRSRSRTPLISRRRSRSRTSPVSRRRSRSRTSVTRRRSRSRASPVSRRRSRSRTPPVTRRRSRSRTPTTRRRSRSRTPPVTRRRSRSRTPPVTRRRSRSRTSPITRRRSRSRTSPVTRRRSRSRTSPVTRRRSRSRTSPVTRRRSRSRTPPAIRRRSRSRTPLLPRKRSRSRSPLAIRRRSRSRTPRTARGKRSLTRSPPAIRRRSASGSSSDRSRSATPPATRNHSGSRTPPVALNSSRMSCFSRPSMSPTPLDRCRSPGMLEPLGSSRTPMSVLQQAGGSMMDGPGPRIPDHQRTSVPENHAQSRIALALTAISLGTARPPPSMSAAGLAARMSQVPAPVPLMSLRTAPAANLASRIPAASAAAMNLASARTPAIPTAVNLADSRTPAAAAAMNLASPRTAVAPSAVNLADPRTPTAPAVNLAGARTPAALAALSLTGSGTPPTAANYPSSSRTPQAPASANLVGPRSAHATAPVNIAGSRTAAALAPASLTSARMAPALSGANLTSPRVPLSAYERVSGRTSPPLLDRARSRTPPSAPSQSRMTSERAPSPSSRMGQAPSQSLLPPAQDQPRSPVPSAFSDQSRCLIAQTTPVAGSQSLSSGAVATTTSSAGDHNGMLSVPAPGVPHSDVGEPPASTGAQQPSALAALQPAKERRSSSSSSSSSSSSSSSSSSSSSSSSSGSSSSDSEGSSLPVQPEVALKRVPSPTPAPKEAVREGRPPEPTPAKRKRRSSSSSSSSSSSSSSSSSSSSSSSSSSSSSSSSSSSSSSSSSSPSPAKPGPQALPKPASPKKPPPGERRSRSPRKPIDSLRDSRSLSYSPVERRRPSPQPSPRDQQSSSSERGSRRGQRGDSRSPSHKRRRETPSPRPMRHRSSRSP
# UniProt Q8IX01: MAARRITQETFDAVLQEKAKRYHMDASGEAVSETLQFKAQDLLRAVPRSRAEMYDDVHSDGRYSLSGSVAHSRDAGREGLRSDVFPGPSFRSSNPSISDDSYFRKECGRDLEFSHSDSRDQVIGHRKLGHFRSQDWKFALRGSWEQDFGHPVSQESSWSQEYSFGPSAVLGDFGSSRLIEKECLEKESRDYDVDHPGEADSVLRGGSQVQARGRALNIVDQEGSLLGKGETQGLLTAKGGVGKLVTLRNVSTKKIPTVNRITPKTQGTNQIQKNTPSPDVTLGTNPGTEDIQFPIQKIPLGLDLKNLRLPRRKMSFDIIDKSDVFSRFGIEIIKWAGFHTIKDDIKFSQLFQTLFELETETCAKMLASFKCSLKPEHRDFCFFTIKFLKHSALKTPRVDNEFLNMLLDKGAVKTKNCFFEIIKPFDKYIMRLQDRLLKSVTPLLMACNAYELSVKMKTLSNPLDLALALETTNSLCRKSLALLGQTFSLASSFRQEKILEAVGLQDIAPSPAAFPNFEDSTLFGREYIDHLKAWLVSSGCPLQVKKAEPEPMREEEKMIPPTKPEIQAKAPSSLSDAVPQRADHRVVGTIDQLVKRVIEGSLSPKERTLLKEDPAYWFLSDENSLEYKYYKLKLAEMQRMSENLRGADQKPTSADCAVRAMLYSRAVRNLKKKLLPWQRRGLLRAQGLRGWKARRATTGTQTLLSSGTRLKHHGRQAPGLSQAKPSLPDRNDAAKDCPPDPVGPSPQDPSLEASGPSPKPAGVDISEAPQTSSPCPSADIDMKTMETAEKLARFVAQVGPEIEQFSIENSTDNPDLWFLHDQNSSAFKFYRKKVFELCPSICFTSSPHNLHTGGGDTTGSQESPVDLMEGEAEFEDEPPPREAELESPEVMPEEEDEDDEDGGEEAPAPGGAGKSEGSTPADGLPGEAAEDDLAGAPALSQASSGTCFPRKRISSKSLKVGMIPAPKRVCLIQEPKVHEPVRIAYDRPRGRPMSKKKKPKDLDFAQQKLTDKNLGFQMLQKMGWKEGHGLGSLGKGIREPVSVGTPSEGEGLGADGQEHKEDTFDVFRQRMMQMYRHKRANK
# UniProt O95210: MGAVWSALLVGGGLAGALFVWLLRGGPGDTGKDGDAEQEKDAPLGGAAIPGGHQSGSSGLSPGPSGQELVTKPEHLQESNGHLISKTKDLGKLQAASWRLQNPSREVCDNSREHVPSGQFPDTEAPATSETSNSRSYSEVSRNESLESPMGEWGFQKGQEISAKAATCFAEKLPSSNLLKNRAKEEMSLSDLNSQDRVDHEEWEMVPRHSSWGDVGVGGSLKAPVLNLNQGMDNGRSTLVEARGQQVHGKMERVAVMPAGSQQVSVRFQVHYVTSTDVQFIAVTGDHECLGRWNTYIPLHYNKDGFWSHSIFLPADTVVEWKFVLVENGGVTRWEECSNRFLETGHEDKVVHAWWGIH
# UniProt Q12772: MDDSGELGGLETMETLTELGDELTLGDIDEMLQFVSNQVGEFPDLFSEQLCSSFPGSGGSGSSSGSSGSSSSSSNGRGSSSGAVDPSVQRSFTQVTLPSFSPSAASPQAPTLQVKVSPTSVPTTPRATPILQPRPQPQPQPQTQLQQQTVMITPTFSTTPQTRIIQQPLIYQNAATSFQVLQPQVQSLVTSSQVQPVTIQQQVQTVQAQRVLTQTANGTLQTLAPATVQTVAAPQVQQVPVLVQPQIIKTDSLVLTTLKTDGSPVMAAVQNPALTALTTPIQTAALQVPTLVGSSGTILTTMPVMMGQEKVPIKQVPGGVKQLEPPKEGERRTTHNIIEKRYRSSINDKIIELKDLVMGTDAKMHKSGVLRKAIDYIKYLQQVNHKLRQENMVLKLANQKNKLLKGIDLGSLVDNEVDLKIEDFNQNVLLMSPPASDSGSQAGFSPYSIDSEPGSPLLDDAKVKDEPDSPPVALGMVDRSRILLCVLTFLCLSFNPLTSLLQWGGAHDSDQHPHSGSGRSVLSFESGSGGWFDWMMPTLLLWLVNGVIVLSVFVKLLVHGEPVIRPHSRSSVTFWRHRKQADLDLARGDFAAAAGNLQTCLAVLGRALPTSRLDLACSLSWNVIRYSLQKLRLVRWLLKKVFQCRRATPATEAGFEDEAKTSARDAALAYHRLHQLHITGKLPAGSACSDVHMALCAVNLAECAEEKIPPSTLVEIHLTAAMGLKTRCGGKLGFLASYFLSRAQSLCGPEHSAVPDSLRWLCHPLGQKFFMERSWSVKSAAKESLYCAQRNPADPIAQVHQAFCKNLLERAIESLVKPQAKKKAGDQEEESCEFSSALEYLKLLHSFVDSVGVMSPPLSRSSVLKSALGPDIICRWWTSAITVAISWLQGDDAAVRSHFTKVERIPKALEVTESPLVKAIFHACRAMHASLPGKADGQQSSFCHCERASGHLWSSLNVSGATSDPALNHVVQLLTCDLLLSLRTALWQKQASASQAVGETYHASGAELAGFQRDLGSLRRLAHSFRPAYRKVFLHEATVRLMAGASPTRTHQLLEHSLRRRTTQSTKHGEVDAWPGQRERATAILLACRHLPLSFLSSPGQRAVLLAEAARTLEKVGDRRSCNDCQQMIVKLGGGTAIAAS
# UniProt O60506: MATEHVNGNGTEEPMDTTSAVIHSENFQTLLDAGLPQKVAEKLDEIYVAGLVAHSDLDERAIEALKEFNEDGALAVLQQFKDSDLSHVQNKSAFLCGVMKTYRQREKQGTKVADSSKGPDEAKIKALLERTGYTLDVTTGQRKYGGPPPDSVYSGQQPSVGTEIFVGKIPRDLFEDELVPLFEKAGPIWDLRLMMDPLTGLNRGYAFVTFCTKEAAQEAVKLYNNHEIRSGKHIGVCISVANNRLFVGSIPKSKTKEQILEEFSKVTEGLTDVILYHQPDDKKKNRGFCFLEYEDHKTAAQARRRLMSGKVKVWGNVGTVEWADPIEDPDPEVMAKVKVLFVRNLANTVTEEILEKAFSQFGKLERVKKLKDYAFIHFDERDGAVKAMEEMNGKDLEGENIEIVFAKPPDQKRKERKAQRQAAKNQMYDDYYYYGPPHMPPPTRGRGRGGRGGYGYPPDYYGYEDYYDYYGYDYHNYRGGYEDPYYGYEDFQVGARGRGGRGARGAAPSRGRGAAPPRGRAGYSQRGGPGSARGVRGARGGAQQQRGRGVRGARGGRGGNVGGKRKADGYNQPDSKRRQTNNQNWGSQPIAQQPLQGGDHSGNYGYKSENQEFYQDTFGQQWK
# UniProt P61764, whole entry, looked up: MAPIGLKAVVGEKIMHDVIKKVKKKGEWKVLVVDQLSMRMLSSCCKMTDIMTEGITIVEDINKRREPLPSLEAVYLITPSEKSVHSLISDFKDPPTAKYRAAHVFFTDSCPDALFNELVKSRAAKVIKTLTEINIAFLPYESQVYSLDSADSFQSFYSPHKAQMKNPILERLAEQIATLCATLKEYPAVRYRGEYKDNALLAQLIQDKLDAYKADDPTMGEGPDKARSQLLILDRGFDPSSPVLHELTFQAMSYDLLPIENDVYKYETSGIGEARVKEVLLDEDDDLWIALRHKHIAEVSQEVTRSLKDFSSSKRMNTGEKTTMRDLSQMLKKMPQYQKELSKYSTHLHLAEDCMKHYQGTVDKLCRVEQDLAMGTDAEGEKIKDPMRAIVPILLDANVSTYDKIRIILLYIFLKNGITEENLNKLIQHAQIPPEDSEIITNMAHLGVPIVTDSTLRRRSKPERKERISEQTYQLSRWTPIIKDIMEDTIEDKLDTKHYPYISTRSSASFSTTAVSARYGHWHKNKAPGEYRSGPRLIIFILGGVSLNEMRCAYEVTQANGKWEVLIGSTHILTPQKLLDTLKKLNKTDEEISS
# UniProt Q9Y3F4, 320-350: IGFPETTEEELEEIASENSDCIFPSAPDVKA
# Some of the results follow. The data scatter; read single values as rough.
# Experiments:
# [1] = compound: ClCC(=O)N[C@@H]1CCCc2ccccc12; experiment: log2 mean competition ratio of IA-DTB cysteine labelling (DMSO/compound) (log2 ratio); higher = stronger cysteine engagement by compound; conditions: treatment time: 4 h, cell line lysate: HEK293T
# Procedure: (§1)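 IA-DTB competitive cysteine chemoproteomics in HEK293T RIPA lysate. Lysates were treated with compound 29 or 30 at 50 or 200 µM for 4 h, then IA-DTB (500 µM, 1 h), trypsin-digested, NeutrAvidin-enriched and analysed by diaPASEF. Competition ratio = intensity DMSO / intensity compound (n=4 treated, n=64 DMSO); binding: mean log2 CR ≥ 1 and p ≤ 0.05 plus QC filters. Target is the cysteine site.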
# [2] = compound: ClCC(=O)N[C@H]1CCCc2ccccc12; experiment: as above; conditions: treatment time: 4 h, cell line lysate: HEK293T
# Procedure: as §1
Target,log2 mean competition ratio ([1]; 50 µM),log2 mean competition ratio ([1]; 200 µM),log2 mean competition ratio ([2]; 50 µM),log2 mean competition ratio ([2]; 200 µM)
SRRM2 C956 (UniProt Q9UQ35),0.158,0.00355,0.0755,0.0665
SYPL1 C193 (UniProt Q16563),-0.0707,0.125,0.00587,-0.0825
SYNE2 C1931 (UniProt Q8WXH0),0.0151,0.0649,-0.0594,-0.0945
SUGP2 C656 (UniProt Q8IX01),0.102,0.694,0.2,0.787
SPAST C448 (UniProt Q9UBP0),-0.357,0.0897,0.267,-0.0283
SYNE2 C568 (UniProt Q8WXH0),-0.0499,0.33,0.487,0.523
SRRM2 C785 (UniProt Q9UQ35),0.0728,-0.0318,0.231,0.0112
STAG2 C711 (UniProt Q8N3U4),0.341,0.0226,0.18,0.115
STT3A C193 (UniProt P46977),0.655,0.613,0.395,0.456
SRP72 C128 (UniProt O76094),0.144,0.0149,-0.785,-0.0714
STBD1 C337 (UniProt O95210),-0.39,-0.153,-0.303,-0.103
ST3GAL6 C118 (UniProt Q9Y274),-0.0924,0.00488,-0.199,0.216
STXBP6 C144 (UniProt Q8NFX7),0.0416,-0.197,-0.23,-0.00549
SRPRA C253 (UniProt P08240),0.404,-0.124,0.45,0.107
SUPT3H C186 (UniProt O75486),-0.21,-0.0845,0.0323,0.0494
STK10 C947 (UniProt O94804),-0.0448,-0.044,-0.171,-0.177
STEAP2 C168,-0.185,0.243,-0.0902,0.0567
SREBF2 C832 (UniProt Q12772),-0.227,0.915,-0.373,0.549
SYNE2 C6161 (UniProt Q8WXH0),0.145,-0.218,0.072,-0.241
SRSF11 C455 (UniProt Q05519),-0.174,0.227,-0.167,0.173
SSH2 C1054 (UniProt Q76I76),-0.111,-0.0631,-0.126,0.029
SRSF7 C119 (UniProt Q16629),0.228,-0.191,0.193,-0.251
SRRD C137 (UniProt Q9UH36),0.146,-0.458,0.141,-0.158
SPECC1L C395 (UniProt Q69YQ0),-0.232,0.0746,-0.0553,-0.102
STIM2 C698 (UniProt Q9P246),0.499,0.0858,0.395,-0.123
SPG7 C627 (UniProt Q9UQ90),0.146,0.085,-0.0789,-0.0176

Target,log2 mean competition ratio ([1]; 50 µM),log2 mean competition ratio ([1]; 200 µM),log2 mean competition ratio ([2]; 50 µM),log2 mean competition ratio ([2]; 200 µM)
SPATS2L C185 (UniProt Q9NUQ6),0.0551,0.0308,-0.451,-0.0358
SPTBN2 C1966 (UniProt O15020),0.232,-0.133,-0.103,-0.173
STK39 C450 (UniProt Q9UEW8),0.36,-0.115,-0.136,-0.134
SPEN C1238 (UniProt Q96T58),-0.287,0.0823,0.0174,0.369
STIM2 C313 (UniProt Q9P246),0.06,0.0523,0.000509,0.169
STRN C765 (UniProt O43815),0.326,-0.0901,0.106,-0.109
STX5 C68 (UniProt Q13190),0.516,0.48,0.135,0.307
SSX2IP C331 (UniProt Q9Y2D8),0.00817,0.0495,0.266,0.239
SRPK1 C188 (UniProt Q96SB4),-0.0866,-0.00179,0.126,-0.0693
SUPT20H C255 (UniProt Q8NEM7),-0.321,0.284,-0.647,0.123
SYNCRIP C96 (UniProt O60506),0.0255,-0.179,0.0731,-0.0977
STXBP1 C552 (UniProt P61764),0.399,-0.0917,-0.0602,-0.0347
SPTLC1 C438 (UniProt O15269),0.266,-0.169,0.717,-0.147
SUPT5H C429 (UniProt O00267),-0.227,-0.879,0.105,-0.316
STAG2 C535 (UniProt Q8N3U4),-0.175,-0.11,-0.073,-0.233
STXBP3 C354 (UniProt O00186),-0.175,0.507,-0.318,0.301
SUN1 C499 (UniProt O94901),0.0577,-0.0142,0.0318,0.022
SPECC1 C578 (UniProt Q5M775),-0.113,-0.118,0.121,-0.0886
STIP1 C26,0.0991,0.145,-0.0329,-0.244
SYNRG C1194 (UniProt Q9UMZ2),-0.199,-0.239,-0.345,-0.349
SPTLC2 C19 (UniProt O15270),-0.0889,0.248,-0.0517,0.0547
STAT5B C101 (UniProt P51692),0.313,0.0904,0.701,0.338
SURF6 C19 (UniProt O75683),0.492,-0.158,0.326,-0.19
STIL C134 (UniProt Q15468),0.047,0.25,-0.125,-0.087
SPTAN1 C2233 (UniProt Q13813),-0.289,-0.0475,0.14,-0.385
STK38L C362 (UniProt Q9Y2H1),-0.0466,0.0239,-0.412,0.0596

# Only log2 mean competition ratio ([1]; 50 µM), log2 mean competition ratio ([1]; 200 µM) and log2 mean competition ratio ([2]; 200 µM) (three entries from above):
Target	log2 mean competition ratio ([1]; 50 µM)	log2 mean competition ratio ([1]; 200 µM)	log2 mean competition ratio ([2]; 200 µM)
STXBP3 C354 (UniProt O00186)	-0.175	0.507	0.301
SUN1 C499 (UniProt O94901)	0.0577	-0.0142	0.022
SPECC1 C578 (UniProt Q5M775)	-0.113	-0.118	-0.0886

# Continuation.

Target,log2 mean competition ratio ([1]; 50 µM),log2 mean competition ratio ([1]; 200 µM),log2 mean competition ratio ([2]; 50 µM),log2 mean competition ratio ([2]; 200 µM)
STAT3 C108 (UniProt P40763),-0.0597,0.0152,-0.26,0.141
SPG11 C1424 (UniProt Q96JI7),-0.274,0.413,-0.159,0.197
SPEN C1134 (UniProt Q96T58),0.0239,0.408,-0.277,0.237
STK4 C80 (UniProt Q13043),-0.0734,-0.247,0.15,-0.324
SRSF1 C148 (UniProt Q07955),-0.123,-0.218,-0.195,-0.0646
SPTLC2 C438 (UniProt O15270),0.145,-0.131,-0.287,-0.226
SRC C403 (UniProt P12931),-0.178,-0.0639,-0.674,-0.0231
SPTAN1 C1314 (UniProt Q13813),-0.0512,0.17,0.28,-0.0619
SPATA13 C419,0.0923,0.126,-0.0225,-0.086
STAT5B C688 (UniProt P51692),0.324,0.0157,0.184,0.034
SRBD1 C762 (UniProt Q8N5C6),0.277,0.0582,0.316,0.101
SSX2IP C137 (UniProt Q9Y2D8),0.226,0.239,-0.328,0.0268
SYNE1 C7251 (UniProt Q8NF91),-0.0176,0.0143,0.0524,-0.00977
SRRM2 C1480 (UniProt Q9UQ35),-0.13,0.181,-0.16,0.27
SRGAP2 C370,0.237,0.0325,0.153,-0.051
STK19 C230 (UniProt P49842),0.0982,-0.0647,0.0282,-0.0778
STRIP1 C100 (UniProt Q5VSL9),-0.187,0.0766,0.308,0.269
SSB C245,-0.0523,0.143,-0.156,-0.223
STAM2 C85 (UniProt O75886),0.16,0.145,0.00395,-0.0708
SPTLC1 C192 (UniProt O15269),0.111,-0.0182,0.478,0.0458
SPTBN2 C2226 (UniProt O15020),-0.422,-0.084,-0.457,0.551
STUB1 C180 (UniProt Q9UNE7),0.0445,0.0379,-0.0306,0.32
STRBP C83 (UniProt Q96SI9),-0.0243,-0.21,0.065,-0.0575
SRPRB C73 (UniProt Q9Y5M8),0.543,0.217,-0.0138,0.162
STRAP C340 (UniProt Q9Y3F4),-0.0944,-0.259,0.0561,-0.0277
